# Laboratory results published in PubChem BioAssay AID504834 (National Center for Advancing Translational Sciences (NCATS), 2011).
# Among all 320,000 compounds or so, about 22,000 (6.9%) were called active. The inconclusive results got no clear call from the source; some entries with a clear call stand among them for comparison. Calls come from the whole dose curve; as a rule, active = well fitted inhibition curve with a large enough effect; inconclusive = small, poorly fitted or top-dose-only effect, or another doubt; inactive = no such curve, though single readings can be large or run the other way. Potencies beside an inconclusive call are fits to weak or partial responses and may not hold up.
# Test: Primary qHTS for delayed death inhibitors of the malarial parasite plastid, 96 hour incubation
# Details: P. falciparum luciferase reporter growth; series mostly up to 28.7 µM; activity change, negative = inhibition: at the top concentration
# Procedure, shortened: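 Readout is luminescence from an integrated firefly luciferase in P. falciparum. Red cells, 2% hematocrit and 0.05% parasitemia final, were cultured with compound through two parasite generations (96 hours) at 37 C, 5% CO2.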
# % is set by controls: 0 for no effect and ±100 for the full control effect; potency is the fitted concentration of half-maximal effect.
SMILES,"activity change, negative = inhibition",Potency
Cc1coc2c1c(C)cc1oc(=O)c(CC(=O)N[C@@H](CC(C)C)C(=O)O)c(C)c12,inactive: 0%,–
O=C(CN(Cc1ccccc1)S(=O)(=O)c1ccc(F)cc1)NCc1ccccn1,–,"inconclusive: 0.37 µM [inhibitor, full curve, poor fit]"
CC(C)S(=O)(=O)N1CCN(c2ccnc3cc(Cl)ccc23)CC1,–,active: 9.28 µM
COc1cc(NC(=S)NC(C)(C)C)c(OC)cc1Cl,–,"inconclusive: 10.4 µM [inhibitor, single point]"
CC1CCN(C(=O)CCc2ccc(S(=O)(=O)NC(C)(C)C)cc2)CC1,–,"inconclusive: 18.5 µM [inhibitor, single point]"
Oc1cccc(/C=N/c2c(-c3ccco3)nc3ccccn23)c1,–,"inconclusive: 18.5 µM [inhibitor, single point]"
Cc1cccc(C(=O)OCC(=O)N(CC(C)C)c2c(N)n(Cc3ccccc3)c(=O)[nH]c2=O)c1C,–,"inconclusive: 18.5 µM [inhibitor, single point]"
COCCNC(=O)CSCc1cc(C)cc(C)c1,–,"inconclusive: 0.131 µM [inhibitor, full curve, poor fit]"
CCOC(=O)CSc1n[nH]c(-c2cccnc2)n1,inactive: 125%,–
CCN(CC)CCCN1C(=O)C(O)=C(C(=O)c2ccco2)C1c1ccc(OC(C)C)cc1 (configuration not stated),–,"inconclusive: 11.7 µM [inhibitor, single point]"
NC(=S)Nc1cccc2cccnc12,–,"inconclusive: 1.85 µM [inhibitor, full curve]"
C[C@H]1C[C@@H]2[C@H]3CCC4=CC(=O)C=C[C@@]4(C)[C@@]3(Cl)[C@@H](O)C[C@]2(C)[C@]1(OC(=O)c1ccco1)C(=O)CCl,–,active: 2.03 µM
CC(=O)c1ccc(N2CCN(S(=O)(=O)c3c(C(=O)N4CCCC4)c(C)n(C)c3C)CC2)cc1,inactive: 18.3%,–
CCN(CC)c1ccc(/C=N/NC(=O)c2c(Cl)cnn2C)c(O)c1,–,"inconclusive: 10.4 µM [inhibitor, single point]"
COc1ccc(OC)c(S(=O)(=O)N2CCC3(CC2)OCCN3S(=O)(=O)c2ccccc2)c1,–,"inconclusive: 18.5 µM [inhibitor, single point]"
O=C(Cc1cccs1)Nc1cc(S(=O)(=O)N2CCCCC2)ccc1Cl,–,"inconclusive: 16.5 µM [inhibitor, single point]"
Cc1nc2c(C)cccn2c1C(=O)c1ccccc1,–,"inconclusive: 2.94 µM [inhibitor, full curve, poor fit]"
CC(C)Oc1ccc(CNCCC2(C(C)C)CCOC(C)(C)C2)cc1 (configuration not stated),–,"inconclusive: 13.1 µM [inhibitor, single point]"
O=c1cc(CN2CC(O)Cc3ccc4ccccc4c32)nc2sccn12 (configuration not stated),–,"inconclusive: 18.5 µM [inhibitor, partial curve, poor fit]"
C=CCn1c(=N)n(CC(=O)O)c2ccccc21,–,"inconclusive: 13.1 µM [inhibitor, single point]"
COc1ccc(CCNCC(O)COc2c(C)cccc2C)cc1OC (configuration not stated),–,"inconclusive: 18.5 µM [inhibitor, single point]"
CN(CC(=O)Nc1c(Cl)cccc1Cl)C(=O)c1ccccc1-c1nc2ccccc2s1,–,"inconclusive: 9.28 µM [inhibitor, partial curve, poor fit]"

SMILES,"activity change, negative = inhibition",Potency
O=C(Nc1sc2c(c1CN1CCOCC1)CCC2)c1ccc(F)cc1,inactive: -26.4%,–
COCCCNc1nc(N)c([N+](=O)[O-])c(Nc2ccccc2OC)n1,–,"inconclusive: 2.62 µM [inhibitor, full curve, poor fit]"
CC(C)(C)OC(=O)N[C@@H](CC(=O)OCc1ccccc1)C(=O)O,–,"inconclusive: 5.22 µM [inhibitor, single point]"
CC(C)c1nc(=S)n(-c2ccccc2)[nH]1,–,"inconclusive: 18.5 µM [inhibitor, single point]"
O=C(Nc1nnc(C2=COCCO2)o1)c1ccc([N+](=O)[O-])cc1,–,"inconclusive: 10.4 µM [inhibitor, single point]"
COC(=O)c1ccc(NC(=O)C2CCCN2S(=O)(=O)c2ccc(C)cc2)cc1 (configuration not stated),inactive: 2.97%,–
Cc1cc(C)cc(NC(=O)N2CCCN(c3c(Cl)cncc3Cl)CC2)c1,–,"inconclusive: 1.65 µM [inhibitor, full curve, poor fit]"
CCOC(=O)c1c(CC(C)C)csc1/N=C/C1C(=O)CCCC1=O,–,"inconclusive: 18.5 µM [inhibitor, single point]"
Cc1cc(N2CCN(C)CC2)ccc1NC(=O)c1c2c(nc3ccccc13)CCN(Cc1ccccc1)C2,–,"inconclusive: 13.1 µM [inhibitor, partial curve, poor fit]"
CC(c1nc2ccccc2c(=O)[nH]1)N1CCCN(S(=O)(=O)c2ccc(F)cc2)CC1 (configuration not stated),–,"inconclusive: 7.38 µM [inhibitor, partial curve, poor fit]"
C/C(Cl)=C\Cn1c(Nc2ccccc2)nc2c1c(=O)n(C)c(=O)n2C,–,"inconclusive: 13.1 µM [inhibitor, single point]"
CCCCN1C(=O)C2Cc3c([nH]c4ccccc34)CN2C1=S (configuration not stated),–,"inconclusive: 4.15 µM [inhibitor, partial curve, poor fit]"
Cc1ccc(-n2c(SCC(=O)OC(C)C)nnc2-c2cnccn2)cc1,inactive: -0.393%,–
CCc1nnc(NC(=O)CSc2nccn2-c2cccc(C)c2C)s1,–,"inconclusive: 20.8 µM [inhibitor, single point]"
CCCCCCN(C(=O)CCl)c1ccccc1,–,"inconclusive: 3.7 µM [inhibitor, full curve, poor fit]"
CN(CC(=O)Nc1c(Cl)cccc1Cl)C(=O)c1cccc(-n2cccc2)c1,–,"inconclusive: 18.5 µM [inhibitor, single point]"
CC(C)=CCN1CCN(Cc2nc(-c3ccc(F)cc3)cs2)CC1CCO (configuration not stated),–,"inconclusive: 18.5 µM [inhibitor, single point]"
O=C1c2ccccc2C(Nc2ccc3c(c2)OCO3)N1Cc1ccco1 (configuration not stated),–,"inconclusive: 0.828 µM [inhibitor, partial curve, poor fit]"
C/C=C/C(=O)N1CC2(CC(c3cccc(NC(=O)CC(c4ccccc4)c4ccccc4)c3)=NO2)C[C@H]1C(N)=O (some centres not stated),–,"inconclusive: 0.147 µM [inhibitor, full curve, poor fit]"
N#Cc1ccc(C(=O)OCC(=O)N2CCCC2)cc1,inactive: 13.5%,–
CCCCCCCNC(=O)C1(CC2CC(c3cccc(Br)c3)=NO2)CCN(C(=O)c2ccccc2)CC1 (configuration not stated),–,"inconclusive: 18.5 µM [inhibitor, single point]"
CCOc1ccc(NC(=O)Nc2cc(-c3ccccc3)sc2C(=O)OC)cc1,–,"inconclusive: 14.7 µM [inhibitor, single point]"
CC(c1cccs1)N(Cc1ccco1)C(=S)Nc1ccc(F)c(Cl)c1 (configuration not stated),–,"inconclusive: 0.657 µM [inhibitor, full curve, poor fit]"

SMILES,"activity change, negative = inhibition",Potency
Nc1ccccc1C(=O)N1CCc2ccccc21,–,"inconclusive: 7.38 µM [inhibitor, partial curve, poor fit]"
Cc1ccc(S(=O)(=O)NC2CC2)cc1,inactive: -19.4%,–
O=C(O)/C=C/C(=O)Nc1ccc(S(=O)(=O)N2CCCC2)cc1,–,"inconclusive: 2.33 µM [inhibitor, partial curve, poor fit]"
COc1cccc(/C=C2\SC(=O)N(CCC(=O)NNC(=O)c3cccc(Cl)c3)C2=O)c1,inactive: 65.8%,–
CSc1nc(-c2ccc(Cl)cc2)c(C#N)c(=O)n1C,–,"inconclusive: 10.4 µM [inhibitor, single point]"
CCOc1ccc(CCNS(=O)(=O)c2ccc3c(c2)oc(=O)n3C)cc1OCC,–,active: 13.1 µM
c1ccc(-n2nnnc2-c2cccnc2)cc1,–,"inconclusive: 18.5 µM [inhibitor, single point]"
CCCCCCSC1=C(C#N)C(c2ccc(C)o2)CC(=O)N1 (configuration not stated),inactive: -5.48%,–
O=P(CCCO)(Cc1ccccc1)Cc1ccccc1,inactive: 7.07%,–
O=c1cc(-c2ccccc2)oc2ccccc12,inactive: 123%,–
O=C(Nc1nnc(C2CC2)s1)c1ccccn1,–,active: 10.4 µM
COC(=O)CC1C(=O)NCCN1C(=O)CSc1nnc(Nc2ccc(C)cc2)s1 (configuration not stated),–,active: 7.38 µM
CCc1cccc(NC(=O)Cn2c(=O)n(CCC(=O)NCC3CCCO3)c(=O)c3cc(OC)c(OC)cc32)c1 (configuration not stated),inactive: -13.9%,–
O=C(CN1CCN(S(=O)(=O)c2ccc(Br)cc2)CC1)Nc1ccccc1C(=O)c1ccccc1,–,"inconclusive: 18.5 µM [inhibitor, single point]"
COC(=O)C1=C(c2ccc(OC(F)(F)F)cc2)C[C@@H]2CC[C@H]1N2C(=O)NC1Cc2ccccc2C1,–,"inconclusive: 23.3 µM [inhibitor, partial curve, poor fit]"
COc1ccccc1-c1cc2nc(C)cc(C)n2n1,inactive: 60%,–
CC(=O)n1c(=O)c2ccccc2c(=O)n1-c1ccccc1,inactive: -13.7%,–
COc1ccc([C@H]2CC(=O)C=C(c3cc4ccccc4c4ccccc34)C2)cc1,–,"inconclusive: 2.62 µM [inhibitor, single point]"
O=C(CSc1nc2ccsc2c(=O)n1CC1CCC(C(=O)O)CC1)NCCc1ccc(Cl)cc1 (configuration not stated),–,active: 7.38 µM
CCCCCC(=O)Nc1cccc(S(=O)(=O)NC2=NCCCCC2)c1,–,"inconclusive: 18.5 µM [inhibitor, single point]"
CCc1cc(=O)oc2c(C)c(OCC(=O)NCC3CCC(C(=O)O)CC3)ccc12 (configuration not stated),–,"inconclusive: 5.22 µM [inhibitor, single point]"
